Data taken from ChEMBL document CHEMBL3988442, “University of Dundee, Small-Polar-MMV Screening Library” (2021).

Chains of the proteins cited; added tags and fusions are not shown.
UniProt P9WPC5, whole entry: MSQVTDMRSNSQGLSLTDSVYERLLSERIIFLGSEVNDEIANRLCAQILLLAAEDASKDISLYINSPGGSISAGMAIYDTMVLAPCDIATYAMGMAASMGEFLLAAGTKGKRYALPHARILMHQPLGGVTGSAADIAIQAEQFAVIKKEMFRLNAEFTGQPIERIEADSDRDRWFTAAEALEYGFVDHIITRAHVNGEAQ
UniProt P9WPC3, whole entry partner: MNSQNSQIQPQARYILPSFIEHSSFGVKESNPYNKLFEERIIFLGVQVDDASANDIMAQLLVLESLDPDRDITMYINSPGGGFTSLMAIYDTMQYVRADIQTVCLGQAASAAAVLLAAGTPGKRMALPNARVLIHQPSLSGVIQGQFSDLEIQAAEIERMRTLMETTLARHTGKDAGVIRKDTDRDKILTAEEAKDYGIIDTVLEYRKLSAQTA
UniProt P9WNZ1, whole entry: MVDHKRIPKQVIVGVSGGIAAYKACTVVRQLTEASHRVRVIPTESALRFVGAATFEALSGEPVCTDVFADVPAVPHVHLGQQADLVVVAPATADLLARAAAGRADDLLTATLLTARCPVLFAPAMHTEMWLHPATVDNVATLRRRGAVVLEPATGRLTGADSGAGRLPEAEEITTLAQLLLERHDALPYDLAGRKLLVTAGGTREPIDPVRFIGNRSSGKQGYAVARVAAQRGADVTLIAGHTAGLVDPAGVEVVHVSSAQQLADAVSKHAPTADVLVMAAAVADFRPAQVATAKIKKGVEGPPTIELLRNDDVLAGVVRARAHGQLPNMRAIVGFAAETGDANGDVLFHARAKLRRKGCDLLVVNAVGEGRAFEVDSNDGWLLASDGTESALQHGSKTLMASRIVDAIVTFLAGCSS

A: 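ClpP1P2, Mycobacterium tuberculosis (UniProt P9WPC5 and UniProt P9WPC3). Protease assay of ClpP1P2, read by the AMC dye that it sets free. Compounds at 50 µM. Direction is inferred from only a few compounds that gave an IC50; most scored high, so higher reads as stronger inhibition. Most other retested compounds had strongly negative values. Size under these conditions: about 69,000 compounds, about 10 of them at 50% or above in at least one test.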
B: 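Enzyme assay of CoaBC with a phosphate dye (Biomol Green) read at 650 nm. Target: Coenzyme A biosynthesis protein CoaBC, Mycobacterium tuberculosis (UniProt P9WNZ1). Compounds at 30 µM. Higher reads as stronger inhibition, judged from the few compounds that gave an IC50. Most strong results did not repeat in a second test. Of about 67,000 compounds tested this way, about 40 (0.06%) reached 50% or more in at least one test.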

Each number is a percent effect as filed. The record does not define 0% and 100%; most values in the screen are far below 50% and negative numbers occur (in some assays of this library far below -100). This is an unselected part of the compounds tested. A dash means the value is not listed here; it may have been measured.

compound	A	B
c1cncc(-c2noc(CCNc3ncnc4c3CCNCC4)n2)c1	-3.133	3.086
Cc1cc(C(=O)N2CCc3nc(C4CCCN4)ncc3C2)cs1 (stereo not drawn)	0.244	1.217
CCCC(C#N)NC(=O)c1cc(Br)c2c(c1)OCCO2 (stereo not drawn)	-18.03	-3.133
CCn1nc(C)c2nc(C(C)C)nc(NCCOC)c21	4.032	3.365
CC(=O)N1CCN([C@@H]2CN(C(=O)Cc3ccccc3C)C[C@H]2O)CC1	-29.53	4.662
O=C(Nc1ccc(OCc2cccc(F)c2)c(F)c1)C1COCCO1 (stereo not drawn)	-3.807	-1.373
Cn1cc(C(=O)N2CC[C@@H]3[C@@H]2CCN3Cc2cccnc2)cn1	6.202	9.769
CC(C)=CCCN1CCN(C)C2(CCC(=O)N(C)CC2)C1 (stereo not drawn)	-6.231	12
COc1ccnc(N2CCN(C(=O)c3cnc(C4CC4)s3)CC2)n1	-5.039	6.867
CCOc1ccc(C(=O)NC2CC2)cc1C	-2.058	-0.2433
CC(C)C(=O)N1CCN(CC(O)c2cc(Cl)ccc2Cl)CC1 (stereo not drawn)	-5.175	9.611
O=C(c1n[nH]c(=O)c2ccccc12)N1CCCC1Cn1cccn1 (stereo not drawn)	-9.299	3.294
CCN(CC1CCCN(CCc2cccc(OC)c2)C1)C(=O)CO (stereo not drawn)	-2.321	-1.434
COc1ccc2c(C)nc(N3CCN([C@H]4CCCC[C@@H]4O)CC3)nc2c1	-8.652	0.609
Cc1cc(CC(C)Nc2nc(-c3cccnc3)nc3c2CNC3)[nH]n1 (stereo not drawn)	5.935	-
NC1(C(=O)NCCC2CN(Cc3ccco3)CCO2)CCCC1 (stereo not drawn)	0.1964	6.446
c1cnn(CC2CCCN2c2ncnc3sccc23)c1 (stereo not drawn)	-4.321	1.686
CCC(=O)Nc1ncn(Cc2cccnc2)n1	-4.369	8.173
OC[C@H]1CCN(Cc2ccc3ccccc3n2)C[C@@H]1O	3.531	4.925
O=C(C1SCCc2sccc21)N1CCN(C2CC2)C(=O)C1 (stereo not drawn)	-7.516	11.11
CCN(CC)CCCNc1nc(C)nc2c1CCN(C)C2	-31.91	6.57
Cc1nc2n(n1)CC(NCc1c(Cl)ccc3cccnc13)CC2 (stereo not drawn)	12.32	5.157
CC(C)n1cc(C(=O)N2Cc3ccccc3OC3(CCOCC3)C2)cn1	6.728	-1.111
CCCc1cc(C(=O)N2C[C@H]3CC=C(C)C[C@H]3C2)ccn1	-4.489	2.302
Cc1ccccc1N1CCCN(C(=O)c2nn(C)cc2Cl)CC1	11.78	1.707
CC1COCCN1Cc1nc(Cc2ccccc2)no1 (stereo not drawn)	-1.106	3.641
O=C1CCC2(CCN(c3ncc(F)cn3)CC2)N1Cc1ccncc1	13.13	10.32
CCc1nc(C)c(C(C)N(C)CCc2ccncc2)s1 (stereo not drawn)	3.783	3.481
O=C(c1ccncc1F)N1C[C@H]2CC[C@@H]1CN(Cc1cccnc1)C2	-4.26	1.029
c1cn(-c2cnc(C3CCNCC3)cn2)cn1	-3.086	0.9732
CCC(C)C(=O)NCc1cccc(OCCN(C)C2CCOCC2)c1 (stereo not drawn)	-6.348	-16.03
CN(CC(=O)N(C)C(c1cccnc1)c1ccc(F)c(F)c1)C1CC1 (stereo not drawn)	12.35	-3.871
Cc1ncsc1C(=O)N1CCc2[nH]nc(-c3ccc4c(c3)OCO4)c2C1	-0.9727	4.206
CN(C)C(=O)c1cc2c(nc1NCC1CC1)CCN(CC1CC1)CC2	0.7224	-4.444
NS(=O)(=O)N1CCc2ccc(NC(=O)CC(F)(F)F)cc21	-1.975	-0.9615
O=C(NCc1ccccn1)[C@H]1COC[C@H]2CN(C3CCCC3)C[C@H]21	32.54	0.25
CCCN1CCC(N(C)CCC(=O)Nc2ccccc2SC)CC1	7.982	-3.831
CN1CCN([C@@H]2CN(C(=O)c3cc4cccc(F)c4[nH]3)C[C@H]2O)CC1	-20.65	6.621
CN(C)Cc1nn(C)c2c1CN(C(=O)c1cccc(C#N)c1)C2	5.673	8.706
CC(=O)c1cc(C(=O)N2CC[C@@H]3CC[C@H](C2)N3C)c(=O)[nH]c1C	-5.757	-2.696
Cc1ccccc1C(=O)N1CCOCC1CN(C)C (stereo not drawn)	-2.307	2.871
Cn1cc(C2COC3(CCN(C(=O)c4ccc(F)cc4)CC3)C2)cn1 (stereo not drawn)	-0.2399	2.571
Cc1ccc(CCC(C)NC2CCN(C(N)=O)CC2)cc1 (stereo not drawn)	-1.768	2.336
CCC(C)NC(=O)c1cncc(Br)c1 (stereo not drawn)	5.875	6.818
COc1cccc(CNC(=O)CN2CCCC(Cn3cncn3)C2)c1 (stereo not drawn)	-23.73	1.044
CN(C)[C@@H]1CN(C(=O)CCc2ccccc2)[C@@H]2CCCO[C@H]12	-16.7	2.475
CN1CCN(c2ccc(Cl)cc2NC(=O)c2ccco2)CC1	7.137	2.155
CSc1ncc(C(=O)N2C[C@H]3CC[C@@H]2CN(Cc2ccccc2)C3)cn1	-11.87	-42
Cc1nc(C)c(CCN2CCC(Oc3ccccc3F)CC2)s1	-10.12	0.1248
OCCCN1CCCC1c1ccc(Br)cc1 (stereo not drawn)	-4.562	5.691
N#Cc1ncn(CC(=O)N2CCCC2c2cccs2)n1 (stereo not drawn)	10.98	-3.563
CCC(C)NC(=O)CN1CCOCC1 (stereo not drawn)	8.451	0
Cc1ccc(C(=O)N2C[C@H]3CN(Cc4csc(C)n4)C[C@H]3C2)cn1	15.46	-0.8078
O=C(NCc1cc[nH]n1)N1CCN(c2ccccc2Cl)CC1	13.42	-8.848
COc1cc2ncn(CC(=O)NCCCN(C)C)c(=O)c2cc1OC	-7.598	3.096
CN1CCOC(CN(C(=O)CC2CCCC2)c2nccs2)C1 (stereo not drawn)	-0.1637	5.734
CCOc1ccccc1CNC(=O)Cn1ccc2c(C)nn(C)c2c1=O	-5.07	1.09